System: mouse embryos
Assay: Cytoplasmic removal and live imaging of H2B:RFP-GAP43:GFP embryos (mitosis duration vs cell volume)
Type: cell-based
Details: 10 nM nocodazole
Method: All micromanipulations were performed on a Leica™ DM14000 inverted microscope fitted with Narashige micromanipulators. […] Embryos where thoroughly washed in over a dozen drops of M2 media prior to transfer and incubation in equilibrated KSOM medium for at least 2 hours prior to imaging to allow them to recover from the cytoplasmic removal procedure. Microinjections were performed as described previously (Nakagawa and FitzHarris, 2016; Vázquez-Diez and FitzHarris, 2018; Vázquez-Diez et al., 2016). cRNA was synthesized using mMessenger Machine kit (Ambion) as previously (Nakagawa et al., 2017; Vázquez-Diez et al., 2018), from the following plasmids; pRN4-H2B:RFP, psC2-GAP43:GFP, MajSatTALE:mClover (pTALYM3B15)(Miyanari et al., 2013).
All imaging was performed on a Leica™ SP8 confocal microscope with HyD detectors. For live imaging embryos were placed in a heated top-stage incubator with CO2 supply and imaged with a 20×0.75 NA objective as previously described (Vázquez-Diez et al., 2016). […]
All image analysis was performed using Fiji software. […] Mad2 Immunofluorescence was quantified by subtracting nuclear envelope and background maximum grey values. To calculate cell volume for each cell at metaphase, areas delineated by the cell membrane (GAP43:GFP signal) were manually traced and measured at each Z-slice, the sum of the areas was multiplied by the step size (2 μm). […]

Structure (SMILES): COC(=O)Nc1nc2ccc(C(=O)c3cccs3)cc2[nH]1 [nocodazole]
- correlation of mitosis duration and cell volume (r) (2-4C division, control r=−0.11): −0.17
- correlation of mitosis duration and cell volume (r) (16-32C division, control r=0.33): −0.24
